These are yes or no findings as the source states them, for the method shown. Tags and fused reporters may be left off the sequences shown.

This is an account of results in patent US20090053745A1.

The target of the test is Snapin(1-68) (α-GFP). In words: GST affinity chromatography of cell lysate, Western blot with α-GFP. In general terms: In western blotting, separated proteins are transferred to a membrane and probed.

B1: GST-cypin (enzyme, UniProt Q9WTT6 1-454, looked up, not shown: a dimerising Fc or GST)
chain: MCAARRRELALIFRGTFVHSTWTCPMEVLRDHLLGVSDSGKIVFLEESSQQEKLAKEWCFKPCEIRELSHHEFFMPGLVDTHIHAPQYAFAGSNVDLPLLDWLNKYTFPTEKRFQSTDVAEEVYTRVVRRTLKNGTTTACYFGTIHTDSSLILAEITDKFGQRAFVGKVCMDLNNTVPEYKETTEESVKETERFVSEMLQKNYSRVKPIVTPRFSLSCTETLMSELGNIAKTHDLYIQSHISENREEIEAVKSLYPGYKNYTDVYDKNNLLTNKTVMAHGCYLSEEELNVFSERGASIAHCPNSNLSLSSGLLNVLDVLKHKVKIGLGTDVAGGYSYSMLDAIRRAVMVSNVLLINKVNEKSLTLKEVFRLATLGGSQALGLDREIGNFEVGKDFDALLINPRASDSPIDLFCGDFVGDISEAVIQKFLYLGDDRNIEEVYVGGKQVVPFSSSV
For the molecule B1, the binding entry is “no binding”.
